From US20070003585A1, “Topical skin treating compositions” (STIEFEL LABORATORIES, INC., priority 2005, published 2007)
Like-named read-outs stand apart in the source and are kept apart here. This continues a long series; more values of the same kind are listed elsewhere.

Conditions: Example 10 composition, initial […]

- Tazarotene (as % w/w) (6 months, 6° C.): 0.101 % w/w
- Tazarotene (as % w/w) (6 months, 25° C.): 0.091 % w/w
- Tazarotene (as % w/w) (6 months, 30° C.): 0.085 % w/w
- Tazarotene (as % w/w) (6 months, 40° C.): 0.014 % w/w
- Tazarotene (as % w/w) (90 days, 6° C.): 0.106 % w/w
- Tazarotene (as % w/w) (90 days, 25° C.): 0.088 % w/w
- Tazarotene (as % w/w) (90 days, 30° C.): 0.088 % w/w
- Tazarotene (as % w/w) (90 days, 40° C.): 0.076 % w/w
Compound: CCOC(=O)c1ccc(C#Cc2ccc3c(c2)C(C)(C)CCS3)nc1 [Tazarotene]
